Laboratory results as given in patent US8999890B2, “Signaling compositions, methods, and systems for effecting plant burndown and herbicide enhancement” (KamTec, priority 2013, dated 2015).
At least one structure is not confirmed: it was looked up by name or label, or the drawing left a doubt.

Test system: geranium slips
Experiment: Treatment of geranium slips (Example III)
Type: in vivo
Experimental: In this preferred embodiment of the present invention, according to common geranium cutting means, geraniums were slipped into 18 slips of similar length. In this example the slips had no flower buds. The slips were separated into four different sets: three slips each in three of the sets, and then nine slips in the final set. The slips are then treated with bio-regulator solutions formed from compositions from the different groups and water. In the first set, the slips were treated with BMVE solution; in the second set, the slips were treated with BMTA solution; in the third set, the slips were treated with BMIA in bromide solution; and, in the fourth set, the nine slips were treated with water.
The treatment with bio-regulator solution preferably occurs in the initial planting of the geranium slips, but can also occur at any time from the forming of the geranium slips up to and including the transplanting of the slips. The treatment can occur after transplanting, but this is not the preferred method.
Transplanting can be done by means generally known to those skilled in the art. In this example the slips were transplanted into 6-inch diameter pots and filled with potting soil. Each of the pots were identified as belonging to the first, second, third, or fourth set. Each pot, after transplantation, was thoroughly irrigated with water. Each set of pots were placed outside for maximum sunlight, for eight hours per day.
The study associated with this embodiment is summarized in Table 3-A below, where Set 1 is the control group and Set 2 is the test group. The results are summarized in Table 3-B. Included for convenience is Table 3-C, which summarizes the total test heights to control heights ratios. The ratios for Table 3-C are calculated by totaling the heights grown by each slip in each set and comparing it to the control counterpart that was grown in similar environmental conditions, without the treatment of the bio-regulator solutions. The total heights grown by the test slips are also compared to the control slips by a percentage of the overall height of the control slips.

## Cc1ccc(C(=O)OCCN(C)Cc2ccccc2)cc1 [BMTA]
Day 11, dosage 5 ppm
  Slip 1 Ht.: 2¾ in.
  Slip 2 Ht.: 2¾ in.
  Slip 3 Ht.: 3⅛ in.
Day 11, total heights of the three slips
  Sum (Slip 1 + 2 + 3): 8⅝
Day 11, total test heights to control heights
  Ratio: Test/Control: 8.625/4.625
Day 27, dosage 5 ppm
  Slip 1 Ht.: 3⅛ in.
  Slip 2 Ht.: 3¾ in.
  Slip 3 Ht.: 3⅞ in.
Day 27, total heights of the three slips
  Sum (Slip 1 + 2 + 3): 10¾
Day 27, total test heights to control heights
  Ratio: Test/Control: 10.75/6.625
